PMC11872639 (Food Chemistry: Molecular Sciences, 2025)
Results are given in words; binding and its absence hold for the method and conditions named.

Assays:
[1] = biological target: human TAS1R1 Venus flytrap domain (TAS1R1-VFT) (human) (UniProt Q7RTX1); assay: SEC; Superdex 200 10/300GL, 50 mM Tris-HCl pH 8.0, 150 mM NaCl, 0.1 mM DDM, 0.5 mL/min; column calibrated with molecular mass markers; apparent masses; both purified
[2] = biological target: human TAS1R1 Venus flytrap domain (TAS1R1-VFT) (human) (UniProt Q7RTX1); assay: SEC-MALS; Shodex KW803 column, 50 mM Tris-HCl pH 8.0, 150 mM NaCl, 0.1 mM DDM; 100 uL of the gel filtration-purified fraction at 1.2 mg/mL, 0.5 mL/min; both purified
[3] = biological target: human TAS1R3 Venus flytrap domain (TAS1R3-VFT) (human) (UniProt Q7RTX0); assay: SEC; Superdex 200 10/300GL, 50 mM Tris-HCl pH 8.0, 150 mM NaCl, 0.1 mM DDM, 0.5 mL/min; column calibrated with molecular mass markers; apparent masses; both purified
[4] = biological target: human TAS1R3 Venus flytrap domain (TAS1R3-VFT) (human) (UniProt Q7RTX0); assay: SEC-MALS; Shodex KW803 column, 50 mM Tris-HCl pH 8.0, 150 mM NaCl, 0.1 mM DDM; 100 uL of the gel filtration-purified fraction at 1.2 mg/mL, 0.5 mL/min; both purified

B1: human TAS1R1 Venus flytrap domain (TAS1R1-VFT) (domain or fragment, UniProt Q7RTX1-1 21-495)
chain: FACHSTESSPDFTLPGDYLLAGLFPLHSGCLQVRHRPEVTLCDRSCSFNEHGYHLFQAMRLGVEEINNSTALLPNITLGYQLYDVCSDSANVYATLRVLSLPGQHHIELQGDLLHYSPTVLAVIGPDSTNRAATTAALLSPFLVPMISYAASSETLSVKRQYPSFLRTIPNDKYQVETMVLLLQKFGWTWISLVGSSDDYGQLGVQALENQATGQGICIAFKDIMPFSAQVGDERMQCLMRHLAQAGATVVVVFSSRQLARVFFESVVLTNLTGKVWVASEAWALSRHITGVPGIQRIGMVLGVAIQKRAVPGLKAFEEAYARADKKAPRPCHKGSWCSSNQLCRECQAFMAHTMPKLKAFSMSSAYNAYRAVYAVAHGLHQLLGCASGACSRGRVYPWQLLEQIHKVHFLLHKDTVAFNDNRDPLSSYNIIAWDWNGPKWTFTVLGSSTWSPVQLNINETKIQWHGKDNQVPKS
[1]
  binding: no binding
[2]
  binding: no binding (tested: 1.2 mg/mL)

B2: human TAS1R3 Venus flytrap domain (TAS1R3-VFT) (domain or fragment, UniProt Q7RTX0 21-497)
chain: APLCLSQQLRMKGDYVLGGLFPLGEAEEAGLRSRTRPSSPVCTRFSSNGLLWALAMKMAVEEINNKSDLLPGLRLGYDLFDTCSEPVVAMKPSLMFLAKAGSRDIAAYCNYTQYQPRVLAVIGPHSSELAMVTGKFFSFFLMPQVSYGASMELLSARETFPSFFRTVPSDRVQLTAAAELLQEFGWNWVAALGSDDEYGRQGLSIFSALAAARGICIAHEGLVPLPRADDSRLGKVQDVLHQVNQSSVQVVLLFASVHAAHALFNYSISSRLSPKVWVASEAWLTSDLVMGLPGMAQMGTVLGFLQRGAQLHEFPQYVKTHLALATDPAFCSALGEREQGLEEDVVGQRCPQCDCITLQNVSAGLNHHQTFSVYAAVYSVAQALHNTLQCNASGCPAQDPVKPWQLLENMYNLTFHVGGLPLRFDSSGNVDMEYDLKLWVWQGSVPRLHDVGRFNGSLRTERLKIRWHTSDNQKPVS
[3]
  binding: no binding
[4]
  binding: no binding (tested: 1.2 mg/mL)
